Source: article PMC9740379
No constants are given. Whether binding was seen depends on the method and setting. In cells and extracts the contact can be indirect. Some results given as binding are weak or reduced against the parent protein; the word gives no strength. Tags and fused reporters may be left off the sequences shown.

T1: RAS Protein Activator Like 3 (RASAL3) (human (endogenous in MM cell lines ARP1, CAG)) (UniProt Q86YV0)
T1 sequence: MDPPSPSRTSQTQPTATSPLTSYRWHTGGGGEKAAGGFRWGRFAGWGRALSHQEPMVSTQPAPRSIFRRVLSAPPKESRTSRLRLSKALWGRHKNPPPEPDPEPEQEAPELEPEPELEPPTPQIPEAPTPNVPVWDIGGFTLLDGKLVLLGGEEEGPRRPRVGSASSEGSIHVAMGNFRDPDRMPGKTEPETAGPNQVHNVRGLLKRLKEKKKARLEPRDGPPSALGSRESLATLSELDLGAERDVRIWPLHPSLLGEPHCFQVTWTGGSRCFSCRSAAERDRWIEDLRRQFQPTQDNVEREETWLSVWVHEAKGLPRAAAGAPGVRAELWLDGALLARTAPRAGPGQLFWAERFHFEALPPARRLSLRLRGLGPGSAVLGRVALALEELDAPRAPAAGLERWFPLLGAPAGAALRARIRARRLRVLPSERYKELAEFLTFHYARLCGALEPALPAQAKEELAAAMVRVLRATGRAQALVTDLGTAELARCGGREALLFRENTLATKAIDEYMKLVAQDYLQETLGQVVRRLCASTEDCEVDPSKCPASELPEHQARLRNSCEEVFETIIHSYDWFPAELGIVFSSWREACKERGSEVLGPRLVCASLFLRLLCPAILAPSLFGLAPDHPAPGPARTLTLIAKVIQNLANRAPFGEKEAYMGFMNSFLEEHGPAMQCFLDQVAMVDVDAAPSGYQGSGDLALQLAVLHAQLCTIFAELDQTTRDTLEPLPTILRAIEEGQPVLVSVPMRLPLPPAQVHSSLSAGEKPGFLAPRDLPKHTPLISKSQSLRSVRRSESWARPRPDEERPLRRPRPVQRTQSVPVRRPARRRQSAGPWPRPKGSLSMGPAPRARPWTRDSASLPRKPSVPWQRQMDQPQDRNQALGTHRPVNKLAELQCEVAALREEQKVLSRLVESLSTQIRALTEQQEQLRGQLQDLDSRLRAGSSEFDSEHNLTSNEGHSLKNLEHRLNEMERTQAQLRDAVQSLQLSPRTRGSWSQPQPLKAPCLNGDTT

T2: CD229 (signaling lymphocytic activation molecule family 3), FLAG-tagged, overexpressed in MM cells (human) (UniProt Q9HBG7)
T2 sequence: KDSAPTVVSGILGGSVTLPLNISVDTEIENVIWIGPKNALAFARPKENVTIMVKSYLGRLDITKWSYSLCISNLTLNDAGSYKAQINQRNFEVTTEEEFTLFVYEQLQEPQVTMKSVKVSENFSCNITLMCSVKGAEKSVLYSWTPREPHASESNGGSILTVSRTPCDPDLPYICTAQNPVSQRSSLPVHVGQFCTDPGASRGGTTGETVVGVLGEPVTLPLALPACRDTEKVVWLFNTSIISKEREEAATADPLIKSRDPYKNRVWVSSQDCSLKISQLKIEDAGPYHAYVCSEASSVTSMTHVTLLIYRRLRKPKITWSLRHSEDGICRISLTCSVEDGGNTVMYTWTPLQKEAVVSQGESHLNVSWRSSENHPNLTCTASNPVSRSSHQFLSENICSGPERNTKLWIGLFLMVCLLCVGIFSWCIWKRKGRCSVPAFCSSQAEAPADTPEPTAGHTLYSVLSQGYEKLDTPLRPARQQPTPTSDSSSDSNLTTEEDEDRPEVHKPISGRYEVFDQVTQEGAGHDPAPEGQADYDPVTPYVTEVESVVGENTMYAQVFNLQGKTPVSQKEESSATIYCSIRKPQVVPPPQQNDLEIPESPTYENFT


Experiments:
[1] = biological target: T1, RAS Protein Activator Like 3 (RASAL3) (human (endogenous in MM cell lines ARP1, CAG)); experiment: co-IP; Pierce Direct Magnetic IP/Co-IP kit; IP with FLAG antibody (for FLAG-CD229) or with RASAL3 antibody from CD229-OE MM cells, IgG as negative control, Western blot; also after Dasatinib treatment of the cells (interaction called impaired / reduced)
[2] = biological target: T2, CD229 (signaling lymphocytic activation molecule family 3), FLAG-tagged, overexpressed in MM cells (human); experiment: as above

Row | binding [1] | binding [2] | Binder
1 | binds | – | CD229 (signaling lymphocytic activation molecule family 3), FLAG-tagged, overexpressed in MM cells (receptor, UniProt Q9HBG7 48-655) KDSAPTVVSGILGGSVTLPLNISVDTEIENVIWIGPKNALAFARPKENVTIMVKSYLGRLDITKWSYSLCISNLTLNDAGSYKAQINQRNFEVTTEEEFTLFVYEQLQEPQVTMKSVKVSENFSCNITLMCSVKGAEKSVLYSWTPREPHASESNGGSILTVSRTPCDPDLPYICTAQNPVSQRSSLPVHVGQFCTDPGASRGGTTGETVVGVLGEPVTLPLALPACRDTEKVVWLFNTSIISKEREEAATADPLIKSRDPYKNRVWVSSQDCSLKISQLKIEDAGPYHAYVCSEASSVTSMTHVTLLIYRRLRKPKITWSLRHSEDGICRISLTCSVEDGGNTVMYTWTPLQKEAVVSQGESHLNVSWRSSENHPNLTCTASNPVSRSSHQFLSENICSGPERNTKLWIGLFLMVCLLCVGIFSWCIWKRKGRCSVPAFCSSQAEAPADTPEPTAGHTLYSVLSQGYEKLDTPLRPARQQPTPTSDSSSDSNLTTEEDEDRPEVHKPISGRYEVFDQVTQEGAGHDPAPEGQADYDPVTPYVTEVESVVGENTMYAQVFNLQGKTPVSQKEESSATIYCSIRKPQVVPPPQQNDLEIPESPTYENFT
2 | – | binds | RAS Protein Activator Like 3 (RASAL3) (protein, UniProt Q86YV0 1-1011) MDPPSPSRTSQTQPTATSPLTSYRWHTGGGGEKAAGGFRWGRFAGWGRALSHQEPMVSTQPAPRSIFRRVLSAPPKESRTSRLRLSKALWGRHKNPPPEPDPEPEQEAPELEPEPELEPPTPQIPEAPTPNVPVWDIGGFTLLDGKLVLLGGEEEGPRRPRVGSASSEGSIHVAMGNFRDPDRMPGKTEPETAGPNQVHNVRGLLKRLKEKKKARLEPRDGPPSALGSRESLATLSELDLGAERDVRIWPLHPSLLGEPHCFQVTWTGGSRCFSCRSAAERDRWIEDLRRQFQPTQDNVEREETWLSVWVHEAKGLPRAAAGAPGVRAELWLDGALLARTAPRAGPGQLFWAERFHFEALPPARRLSLRLRGLGPGSAVLGRVALALEELDAPRAPAAGLERWFPLLGAPAGAALRARIRARRLRVLPSERYKELAEFLTFHYARLCGALEPALPAQAKEELAAAMVRVLRATGRAQALVTDLGTAELARCGGREALLFRENTLATKAIDEYMKLVAQDYLQETLGQVVRRLCASTEDCEVDPSKCPASELPEHQARLRNSCEEVFETIIHSYDWFPAELGIVFSSWREACKERGSEVLGPRLVCASLFLRLLCPAILAPSLFGLAPDHPAPGPARTLTLIAKVIQNLANRAPFGEKEAYMGFMNSFLEEHGPAMQCFLDQVAMVDVDAAPSGYQGSGDLALQLAVLHAQLCTIFAELDQTTRDTLEPLPTILRAIEEGQPVLVSVPMRLPLPPAQVHSSLSAGEKPGFLAPRDLPKHTPLISKSQSLRSVRRSESWARPRPDEERPLRRPRPVQRTQSVPVRRPARRRQSAGPWPRPKGSLSMGPAPRARPWTRDSASLPRKPSVPWQRQMDQPQDRNQALGTHRPVNKLAELQCEVAALREEQKVLSRLVESLSTQIRALTEQQEQLRGQLQDLDSRLRAGSSEFDSEHNLTSNEGHSLKNLEHRLNEMERTQAQLRDAVQSLQLSPRTRGSWSQPQPLKAPCLNGDTT
